Experimental data: PubChem BioAssay AID1224826 (NIAID, 2016)
The whole screen tested about 17,000 reagents; shown is an unselected part. Of all reagents, about 1,110 (6.6%) are marked active. 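Active means lowered or raised reporter signal; replicate intensities are raw and not normalised per plate.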 A number with no mark means an inactive call. Not all columns of the deposit are shown.

- Test: 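Genes that change LPS-induced Tnf promoter activity in mouse macrophages when knocked down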 (primary screen)
- Cell system: RAW264.7 G9 macrophages from mouse bearing reporters for p65 (GFP) and the Tnf promoter (mCherry)
- Reagents: siRNA pool against mouse genes, 100 nM
- Timing: 16 h of LPS stimulation, after 2 days of siRNA transfection
- Conditions: bacterial lipopolysaccharide (Salmonella minnesota R595), 10 ng/ml
- Measured: 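Imaged Tnf reporter mCherry in nuclei, minus background, normalised per plate to the median and expressed as robust z-scores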
- Reading the numbers: Tnf reporter robust z-score: higher = stronger Tnf promoter reporter signal after LPS
- Call rule: 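Called active when robust z-score is at most -1.3, matching the median of the Tlr4 knock-down control, or over 3; control wells and wells with under 50 cells never active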
- Calls: active = Tnf reporter clearly lowered or raised; inactive = no clear change in Tnf reporter

gene knocked down	PubChem SID	Tnf reporter robust z-score	fewer than 50 cells in well
Fip1l1	SID315472705	-0.12	enough cells in well
Cd72	SID315465873	-0.42	enough cells in well
Ceacam19	SID315481195	-0.2	enough cells in well
Rassf8	SID315474217	-1.28	enough cells in well
Or5k8	SID315480612	-0.55	enough cells in well
Rbpms2	SID315474401		fewer than 50 cells per well; well left out of calls
Epb41l1	SID315466512	0.18	enough cells in well
Vmn1r237	SID315477310	0.07	enough cells in well
Gfi1b	SID315466883	-1.07	enough cells in well
Flot1	SID315466717	1.29	enough cells in well
F13b	SID315466599	-0.32	enough cells in well
Aurka	SID315469506		fewer than 50 cells per well; well left out of calls
3010003L21Rik	SID315476796		fewer than 50 cells per well; well left out of calls
Odf2	SID315468288	0.09	enough cells in well
Cdc25b	SID315465885	1.58	enough cells in well
Ndufv1	SID315468124	-0.77	enough cells in well
Or8k38	SID315480247	-0.47	enough cells in well
Hmcn2	SID315478591	0.3	enough cells in well
Cfdp1	SID315470195	-0.46	enough cells in well
Nsun6	SID315474978		fewer than 50 cells per well; well left out of calls
Or12e7	SID315480477	0.41	enough cells in well
Alpk2	SID315478428	0.61	enough cells in well
Vmn1r30	SID315477284	2.3	enough cells in well
Gc	SID315466848	0.75	enough cells in well
Pcgf1	SID315473916	0	enough cells in well
Ambn	SID315465401	-0.45	enough cells in well
A630052C17Rik	SID315481391	1.32	enough cells in well
Cd28	SID315465846	-0.92	enough cells in well
Timp1	SID315469726	0.3	enough cells in well
Usp38	SID315475054	-0.1	enough cells in well
Ccn3	SID315468215	0.75	enough cells in well
Pomp	SID315472500		fewer than 50 cells per well; well left out of calls
Slc24a3	SID315476075	0.53	enough cells in well
Zfp292	SID315470734	0.25	enough cells in well
Baat	SID315465589	1.43	enough cells in well
Clspn	SID315480864	-0.13	enough cells in well
Aatf	SID315471456	2.03	enough cells in well
Il13	SID315467432	-0.57	enough cells in well
B130040O20Rik	SID315481425	-0.21	enough cells in well
Cybb	SID315466209	1.34	enough cells in well
Zfp395	SID315481760	0.14	enough cells in well
Wdr41	SID315478195	0.71	enough cells in well
A430057M04Rik	SID315481100	-1.01	enough cells in well
Ambp	SID315465402	-0.26	enough cells in well
Uqcrh	SID315472516	0.75	enough cells in well
Pcare	SID315478391	-0.96	enough cells in well
Efl1	SID315476289	1.35	enough cells in well
Ceacam10	SID315470352	0.55	enough cells in well
Slfn2	SID315469319		fewer than 50 cells per well; well left out of calls
Ubb	SID315469898	0.38	enough cells in well
Nptn	SID315469155	1.24	enough cells in well
Cbs	SID315465801	2.26	enough cells in well
Adam5	SID315465294	-0.07	enough cells in well
Oc90	SID315468283	-1.15	enough cells in well
Zfp653	SID315481127	-1.88 (active)	enough cells in well
Samm50	SID315473596	-0.67	enough cells in well
Ogdh	SID315468291	-0.22	enough cells in well
Or2ag12	SID315480127	0.52	enough cells in well

Limited to “fewer than 50 cells in well” (7 entries from above):
Timp1 [SID315469726]	enough cells in well
Usp38 [SID315475054]	enough cells in well
Ccn3 [SID315468215]	enough cells in well
Pomp [SID315472500]	fewer than 50 cells per well; well left out of calls
Slc24a3 [SID315476075]	enough cells in well
Zfp292 [SID315470734]	enough cells in well
Baat [SID315465589]	enough cells in well
